Experimental data from patent US6972296B2, “Carboxylic acid derivatives that inhibit the binding of integrins to their receptors” (Encysive Pharmaceuticals Inc., priority 1999, dated 2005).

Sequences of proteins named here, by UniProt entry; tags and fusion partners are left off. Residues count along the entry.
UniProt P05556, 21-798 limits assumed: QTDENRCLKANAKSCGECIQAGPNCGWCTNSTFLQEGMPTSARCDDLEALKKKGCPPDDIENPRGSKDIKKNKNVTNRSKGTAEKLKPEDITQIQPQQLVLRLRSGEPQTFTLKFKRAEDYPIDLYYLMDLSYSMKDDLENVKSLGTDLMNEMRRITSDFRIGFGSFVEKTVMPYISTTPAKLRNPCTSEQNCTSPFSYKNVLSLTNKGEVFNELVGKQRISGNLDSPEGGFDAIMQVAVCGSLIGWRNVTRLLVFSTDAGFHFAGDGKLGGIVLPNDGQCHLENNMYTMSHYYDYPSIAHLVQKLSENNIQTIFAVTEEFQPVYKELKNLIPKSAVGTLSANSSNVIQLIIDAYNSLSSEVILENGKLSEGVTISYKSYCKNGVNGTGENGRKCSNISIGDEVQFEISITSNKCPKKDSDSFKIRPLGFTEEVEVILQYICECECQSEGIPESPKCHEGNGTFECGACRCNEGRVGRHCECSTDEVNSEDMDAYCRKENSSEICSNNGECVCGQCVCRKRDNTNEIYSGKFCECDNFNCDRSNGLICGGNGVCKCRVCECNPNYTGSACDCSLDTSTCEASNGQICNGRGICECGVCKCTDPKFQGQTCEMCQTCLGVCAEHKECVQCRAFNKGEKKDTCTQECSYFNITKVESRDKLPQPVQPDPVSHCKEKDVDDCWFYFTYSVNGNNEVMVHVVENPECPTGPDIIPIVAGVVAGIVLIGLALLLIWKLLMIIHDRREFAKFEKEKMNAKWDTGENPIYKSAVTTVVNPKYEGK
UniProt P13612, 34-1032 limits assumed: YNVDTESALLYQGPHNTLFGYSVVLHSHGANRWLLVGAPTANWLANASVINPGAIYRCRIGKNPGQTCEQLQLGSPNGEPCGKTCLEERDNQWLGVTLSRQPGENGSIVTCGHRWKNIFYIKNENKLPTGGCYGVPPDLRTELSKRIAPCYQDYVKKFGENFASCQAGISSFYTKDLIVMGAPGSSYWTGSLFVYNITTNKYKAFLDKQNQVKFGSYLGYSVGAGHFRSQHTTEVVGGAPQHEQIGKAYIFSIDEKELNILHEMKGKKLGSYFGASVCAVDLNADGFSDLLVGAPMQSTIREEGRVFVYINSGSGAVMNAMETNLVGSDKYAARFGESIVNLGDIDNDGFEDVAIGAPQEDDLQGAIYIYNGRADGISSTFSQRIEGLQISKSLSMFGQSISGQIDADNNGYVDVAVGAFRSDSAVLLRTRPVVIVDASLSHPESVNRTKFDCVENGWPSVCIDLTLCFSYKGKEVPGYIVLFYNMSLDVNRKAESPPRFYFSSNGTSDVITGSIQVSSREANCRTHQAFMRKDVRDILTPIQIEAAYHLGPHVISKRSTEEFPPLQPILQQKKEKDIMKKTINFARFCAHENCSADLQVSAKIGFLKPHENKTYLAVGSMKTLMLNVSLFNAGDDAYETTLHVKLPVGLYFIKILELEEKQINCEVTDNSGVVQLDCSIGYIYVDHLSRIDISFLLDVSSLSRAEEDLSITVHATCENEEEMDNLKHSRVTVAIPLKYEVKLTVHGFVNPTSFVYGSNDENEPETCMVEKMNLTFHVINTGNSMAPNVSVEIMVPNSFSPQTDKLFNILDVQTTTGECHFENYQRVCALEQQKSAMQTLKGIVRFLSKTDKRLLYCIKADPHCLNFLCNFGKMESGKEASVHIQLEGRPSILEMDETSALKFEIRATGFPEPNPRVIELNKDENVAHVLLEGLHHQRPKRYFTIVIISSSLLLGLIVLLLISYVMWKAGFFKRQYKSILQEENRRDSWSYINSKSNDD

Target: α4β1 integrin (Homo sapiens, UniProt P05556+P13612)
Test: Adhesion of calcein-labeled Ramos cells to CS1 (fibronectin) peptide conjugated ovalbumin
Settings: Table 7; Ramos cell adhesion to CS1 conjugated ovalbumin; dose required to give 50% inhibition
Protocol: A procedure in which a 26-amino acid peptide containing the CS1 sequence of fibronectin with an N-terminal Cys ([…]) was coupled to maleimide activated ovalbumin was used to determine the efficacy of the compounds synthesized. Bovine serum albumin (BSA) and CS1 conjugated ovalbumin were coated onto 96-well polystyrene plates at 0.5 μg/ml in TBS (50 mM TRIS, pH 7.5; 150 mM NaCl) at 4° C. for 16 hours. The plates were washed three times with TBS and blocked with TBS containing 3% BSA at room temperature for 4 hours. Blocked plates were washed three times in binding buffer (TBS; 1 mM MgCl2; 1 mM CaCl2; 1 mM MnCl2) prior to assay. Ramos cells fluorescently labeled with calcein AM were resuspended in binding buffer (10^7 cells/ml) and diluted 1:2 with same buffer with or without compound. 100 μM of compound was added. The cells were added immediately to the wells (2.5×10^5 cells/well) and incubated for 30 minutes at 37° C. Following three washes with binding buffer, adherent cells were lysed and quantitated using a fluorometer. IC50 is defined as the dose required to give 50% inhibition, measured in μM for Tables 2 and 4. The lower the IC50 value and the greater the percentage of inhibition, the more efficient the compound is at prevention of cell adhesion.

Cc1cccc(Cl)c1Cn1c2c(c(O)c(NC(=O)N[C@@H](CC(=O)O)c3cc(F)cc(F)c3)c1=O)CCC2
IC50: 11 nM

The structures given here were assigned with low confidence; some may be wrong.
